Experimental data as given in US8519154B2, “Method for treatment of bronchial asthma” (Council of Scientific & Industrial Research, priority 2011, dated 2013).

Test system: mice
Experiment: Charcoal meal transit time
Assay type: in vivo
Conditions: 0.1 mg/kg (i.p.)
Method: […] charcoal suspension (20 ml/kg prepared as a 5% solution in 10% gum acacia) was administered perorally 60 min after D8 administration (perorally). After 30 min, charcoal meal administration small intestines were excised and aligned parallel to a ruler. Ratio of the distance traveled by the charcoal meal to the total length of the small intestine was determined for the control (untreated) and Compound I treated mice [Ali, B. H. Bashir, A A. The effect of alpha 2-receptor agonists and antagonists on gastro-intestinal transit time. Clinical and Experimental Pharmacology and Physiology, 20 (1993) 1-6].

CN1[C@@H]2CC[C@H]1CC(OC(=O)C(CO)c1ccccc1)C2.CN1[C@@H]2CC[C@H]1CC(OC(=O)C(CO)c1ccccc1)C2.O=S(=O)(O)O (stereo partly shown) [Atropine sulphate, reference compound]
% Transport (Mean ± SEM): 41.7 ± 2.52 %
